Assay results reported in PubChem BioAssay AID2685 (National Center for Advancing Translational Sciences (NCATS), 2010).
This is one part of the list. Further columns of the screen follow, without active or inactive calls. Compounds called inactive in the main read-out are mostly missing here. The note in brackets gives the kind of curve behind each potency; many fits are weak.

Assay: qHTS Assay for Lipid Storage Modulators in Drosophila S3 Cells;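 for cell number change: cells counted by Cell Tracker Red CMTPX staining in the red channel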
Details: BODIPY lipid droplet fluorescence, 18-24 h; for cell number change: measured here: cell count max response, cells fed with added oleic acid
In short: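 Drosophila S3 cells got compounds at several concentrations plus oleic acid (400 uM solution). Laser-scanning cytometry with 488 nm excitation read lipid droplets at 500-530 nm and cells at 575-640 nm. Percent activity was relative to 20 uM Triacsin C.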

[1] = measured here: lipid fluorescence (Fed channel) AC50, cells fed with added oleic acid
[2] = measured here: cell number channel AC50, cells fed with added oleic acid

Row | SMILES | cell number change [%] | AC50 [1] | AC50 [2]
1 | O=C(Cn1nnc(-c2ccccc2)n1)NCc1cccs1 | -12.7 | 20.6 µM [falling, single point] | –
2 | COc1ccc(CCN(C)C(=O)C2CCCN(Cc3ccc(OC)c(OC)c3)C2)cc1OC (centres undefined) | 24.2 | 4.11 µM [rising, single point] | –
3 | O=C(COC(=O)c1ccc([N+](=O)[O-])cc1)Nc1ccc(Cl)cn1 | -12 | – | –
4 | CCOc1ccc(NC(=O)N2CCC(n3c(=O)[nH]c4ccccc43)CC2)cc1 | 7.58 | 14.6 µM [rising, single point] | –
5 | COc1ccc(S(=O)(=O)CCC(=O)N(C)c2ccc(OC)cc2OC)cc1 | -4.79 | – | –
6 | CC(=O)OCCn1c2nc(=O)[nH]c(=O)c-2nc2cc(C)c(C)cc21 | -42.5 | 6.51 µM [falling, single point] | 0.103 µM [falling, full curve, poor fit]
7 | N#C/C(=N\Nc1cccc(F)c1)C(=N)N1CCCCCC1 | -41 | – | –
8 | CCN1CCN(C(=O)CCc2nnc3ccc(N4CCC5(CC4)OCCO5)nn23)CC1 | 26.3 | – | –
9 | Cn1ccnc1C(O)c1ccco1 (centres undefined) | -150 | 4.61 µM [falling, single point] | 23.1 µM [falling, partial curve]
10 | CCOC(=O)c1cccc(C(=O)Oc2ccccc2)n1 | -0.223 | 6.51 µM [falling, single point] | 0.259 µM [falling, full curve, poor fit]
11 | CCOc1ccccc1N | -3.16 | – | –
12 | CC(C)(C)n1nc2c(c1NC(=O)c1cccs1)CS(=O)C2 (centres undefined) | 7.05 | 0.116 µM [rising, partial curve, poor fit] | 0.103 µM [rising, full curve, poor fit]
13 | CCn1c(-c2cc(-c3cc(C)ccc3C)nc3ccccc23)n[nH]c1=S | – | 2.06 µM [rising, partial curve] | –
14 | Cc1ccnc(NC(=S)NC(=O)c2cncc(Br)c2)c1 | -24.3 | – | –
15 | CCOc1ccc(S(=O)(=O)NC(C)C(=O)NCc2ccncc2)cc1 (centres undefined) | -1.32 | 35.5 µM [falling, single point] | 4.61 µM [rising, partial curve, poor fit]
16 | CCOc1ccc(C2=CS/C(=C(\C#N)c3nnc4n3CCCCC4)N2CC)cc1 | – | 2.31 µM [rising, partial curve] | 2.31 µM [rising, partial curve]
17 | COc1ccc(OC)c(NC(=O)CC(Cc2ccccc2OC)C(=O)O)c1 (centres undefined) | -11.6 | – | 2.59 µM [rising, single point]
18 | CCn1ccc(=N)cc1 | -64.3 | 0.164 µM [falling, full curve] | 29.1 µM [falling, single point]
19 | CCOC(=O)c1cnn(-c2nc3c(C)cccc3s2)c1C | 24.5 | 2.59 µM [falling, partial curve] | –
20 | Nc1cc(OC(=O)c2cccs2)nn1S(=O)(=O)c1ccccc1 | -64.2 | 8.2 µM [falling, partial curve] | 18.4 µM [falling, single point]

Row | SMILES | cell number change [%] | AC50 [1] | AC50 [2]
21 | O=C(Cc1ccc(F)cc1)N/N=C/c1ccc(-c2ccc(Cl)c(C(=O)O)c2)o1 | 31.2 | – | 0.461 µM [falling, full curve]
22 | CN(C)S(=O)(=O)c1ccc(C(=O)Nc2cccc(C(=O)O)c2)cc1 | 0.0997 | 0.411 µM [rising, single point] | –
23 | CCCCOc1ccc(C(=O)NCC(=O)OCC(=O)N2CCN(S(=O)(=O)c3ccc(C)cc3C)CC2)cc1 | -42.9 | – | 0.0116 µM [falling, full curve, poor fit]
24 | CCOC(=O)c1sc(NC(=O)/C=C/c2ccc(F)cc2)nc1C | -46 | – | 23.1 µM [falling, single point]
25 | COc1cccc(/C(=N/O)C2CC2c2ccc(Cl)cc2)c1 (centres undefined) | -6.39 | 6.51 µM [rising, partial curve] | –
26 | CCN(CC(=O)Nc1cc(Cl)ccc1C)C(=O)c1ccc2c(c1)NC(=O)C(C)S2 (centres undefined) | -10.1 | – | –
27 | CCc1ccc(C(=O)NNc2ccc(F)cc2F)cc1 | 14.7 | 11.6 µM [rising, partial curve, poor fit] | –
28 | CCOC(=O)c1sc2cccc(Cl)c2c1N | -33.4 | – | 11.6 µM [falling, partial curve]
29 | O=S(=O)(NC1CCCCC1N1CCN(c2ccc(F)cc2)CC1)c1ccccc1 (centres undefined) | 25.7 | 29.1 µM [rising, partial curve, poor fit] | –
30 | O=C(CN(Cc1cccs1)C(=O)CCC(=O)Nc1nccs1)NCc1ccccc1 | 71.4 | 29.1 µM [rising, single point] | 29.1 µM [rising, single point]
31 | Cc1ccc(CNC(=O)Nc2ccc(Cl)cc2)cc1 | 22.6 | – | –
32 | CCCCC1(C)Nc2ccccc2-c2nc3ccccc3n21 (centres undefined) | -36.6 | – | 29.1 µM [falling, single point]
33 | CCn1c(SCC(=O)O)nnc1C1CCCCC1 | -17.1 | 0.82 µM [falling, partial curve] | –
34 | Cc1ccc(NS(=O)(=O)c2ccc(N/N=C/c3ccncc3)c([N+](=O)[O-])c2)c(C)c1 | 6.6 | 1.46 µM [rising, partial curve] | 0.651 µM [rising, partial curve]
35 | COC(=O)C(C)Sc1nc2c(cnn2-c2ccccc2)c(=O)[nH]1 (centres undefined) | – | 1.03 µM [rising, single point] | –
36 | COc1cccc(C(=S)N2CCOCC2)c1OS(=O)(=O)c1ccc(Cl)cc1 | -52.3 | 23.1 µM [falling, partial curve, poor fit] | 2.31 µM [falling, full curve]
37 | COc1ccc(-n2c(-c3ccc(Cl)cc3)c[n+]3c2CCCCC3)cc1 | -30.4 | 29.1 µM [falling, single point] | 29.1 µM [falling, single point]
38 | COc1ccc(C)cc1NC(=O)C1CCCN(S(=O)(=O)c2cccs2)C1 (centres undefined) | -1.59 | – | –
39 | CCC(C)(C)C1CCc2[nH]nc(C(=O)NCc3ccc(Cl)cc3)c2C1 (centres undefined) | -72.9 | 29.1 µM [falling, single point] | 20.6 µM [falling, single point]

Rewritten as tab-separated lines: 3 of the compounds above
Row	SMILES	cell number change [%]	AC50 [1]	AC50 [2]
30	O=C(CN(Cc1cccs1)C(=O)CCC(=O)Nc1nccs1)NCc1ccccc1	71.4	29.1 µM [rising, single point]	29.1 µM [rising, single point]
31	Cc1ccc(CNC(=O)Nc2ccc(Cl)cc2)cc1	22.6	–	–
32	CCCCC1(C)Nc2ccccc2-c2nc3ccccc3n21 (centres undefined)	-36.6	–	29.1 µM [falling, single point]
